No constants are given. Whether binding was seen depends on the method and setting. In cells and extracts the contact can be indirect. Some entries that bind do so weakly or less than the wild type. Where a sequence is shown, tags or fusion partners need not be part of it.
Assays:
[1] = target: T1, myc-SNX17 (full-length mouse SNX17 with a 9xmyc epitope) (mouse) (UniProt Q8BVL3); test: co-IP; extracts of HEK293 cells transiently transfected with myc-SNX17 and HA-ApoER2 (wild type or NPxA); immunoprecipitated with anti-myc, blotted with anti-HA
T1 sequence: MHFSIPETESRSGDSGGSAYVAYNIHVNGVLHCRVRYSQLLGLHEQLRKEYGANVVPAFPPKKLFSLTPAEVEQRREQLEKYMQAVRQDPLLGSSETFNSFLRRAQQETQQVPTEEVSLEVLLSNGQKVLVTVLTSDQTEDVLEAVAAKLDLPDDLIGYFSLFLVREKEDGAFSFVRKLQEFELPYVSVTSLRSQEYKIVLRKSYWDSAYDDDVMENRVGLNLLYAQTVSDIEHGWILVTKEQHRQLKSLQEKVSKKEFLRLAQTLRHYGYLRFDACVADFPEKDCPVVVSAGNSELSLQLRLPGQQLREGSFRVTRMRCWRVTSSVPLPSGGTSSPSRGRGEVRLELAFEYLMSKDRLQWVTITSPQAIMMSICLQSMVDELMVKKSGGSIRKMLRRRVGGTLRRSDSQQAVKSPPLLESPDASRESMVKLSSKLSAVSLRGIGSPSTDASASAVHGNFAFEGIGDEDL

Protein sequences, listed by entry. Tags and fused reporters are not part of them. Residues count along the entry.
UniProt Q14114, residues 33-963: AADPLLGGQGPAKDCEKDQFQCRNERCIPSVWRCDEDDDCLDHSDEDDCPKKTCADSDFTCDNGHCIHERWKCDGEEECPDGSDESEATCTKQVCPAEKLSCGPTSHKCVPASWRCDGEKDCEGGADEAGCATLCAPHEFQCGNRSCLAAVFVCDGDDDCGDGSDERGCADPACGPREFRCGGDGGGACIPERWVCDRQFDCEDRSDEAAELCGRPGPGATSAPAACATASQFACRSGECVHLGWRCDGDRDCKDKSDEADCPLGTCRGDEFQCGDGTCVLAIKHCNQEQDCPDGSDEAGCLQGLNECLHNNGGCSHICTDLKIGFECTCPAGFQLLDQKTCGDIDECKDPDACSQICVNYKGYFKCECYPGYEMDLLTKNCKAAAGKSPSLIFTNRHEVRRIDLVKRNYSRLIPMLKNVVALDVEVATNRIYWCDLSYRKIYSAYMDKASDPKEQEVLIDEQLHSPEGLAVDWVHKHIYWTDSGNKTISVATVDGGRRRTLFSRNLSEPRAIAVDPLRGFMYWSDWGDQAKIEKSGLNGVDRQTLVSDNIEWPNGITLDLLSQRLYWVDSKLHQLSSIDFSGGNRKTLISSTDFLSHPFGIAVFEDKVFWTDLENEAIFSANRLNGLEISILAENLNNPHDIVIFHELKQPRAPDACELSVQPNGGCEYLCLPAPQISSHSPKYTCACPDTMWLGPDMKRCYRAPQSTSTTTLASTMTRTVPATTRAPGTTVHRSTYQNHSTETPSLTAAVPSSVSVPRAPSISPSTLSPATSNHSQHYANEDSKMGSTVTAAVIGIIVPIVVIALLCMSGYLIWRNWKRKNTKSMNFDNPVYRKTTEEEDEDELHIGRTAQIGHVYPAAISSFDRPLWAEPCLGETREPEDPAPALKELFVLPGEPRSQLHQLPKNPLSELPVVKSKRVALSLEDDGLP

[2] = target: T2, GST-SNX17 (full-length SNX17 fused to GST) (UniProt Q8BVL3); test: pull-down; GST-SNX17 (full length) on glutathione agarose beads incubated with lysates of HEK 293 cells transfected with HA-ApoER2 wild-type or NPxY/A; HUNT buffer, 3 h at 4°C; anti-HA western blot; only the target purified
T2 sequence: T1 sequence

- binding [1]: binds
- binding [2]: binds
Substance: HA-ApoER2 wild-type (from UniProt Q14114 33-963) (receptor)

Reference: article PMC3976305
